# Measurements taken from PubChem BioAssay AID504834 (National Center for Advancing Translational Sciences (NCATS), 2011).
# About 22,000 (6.9%) of roughly 320,000 compounds were called active. The shares of active, inactive and inconclusive entries below differ from those in the screen. Calls come from the whole dose curve; as a rule, active = well fitted inhibition curve with a large enough effect; inconclusive = small, poorly fitted or top-dose-only effect, or another doubt; inactive = no such curve, though single readings can be large or run the other way. Where the call is inconclusive, the potency comes from a doubtful curve fit.
# Test: Primary qHTS for delayed death inhibitors of the malarial parasite plastid, 96 hour incubation
# Settings: P. falciparum luciferase reporter growth; series mostly up to 28.7 µM
# Procedure, shortened: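 Compounds incubated with erythrocytes infected by luciferase-expressing P. falciparum (2% hematocrit, 0.05% parasitemia final) for 96 hours, 37 C in 5% CO2. Growth inhibition scored as decreased luciferase luminescence.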
# Potency is the fitted concentration of half-maximal effect.
row,Structure (SMILES),Potency
1,COc1ccc(NCc2ccc([N+](=O)[O-])s2)cc1,inactive
2,Cc1cc2cc(C(c3nnnn3Cc3ccccc3)N3CCc4ccccc43)c(=O)[nH]c2cc1C (stereo not given),active: 5.22 µM
3,N#Cc1c(N)n(C2CCCCC2)c2nc3ccccc3nc12,"inconclusive: 4.65 µM [inhibitor, partial curve]"
4,CC(=O)c1ccc2c3c(ccc(O)c13)CC2,"inconclusive: 9.28 µM [inhibitor, partial curve]"
5,CS(=O)(=O)N(CC(=O)NC1CC2CCC1C2)c1ccc(Oc2ccccc2)cc1 (stereo not given),"inconclusive: 18.5 µM [inhibitor, single point]"
6,CCC(C)NC(=O)Cn1ccc2cc(S(=O)(=O)N3CCCCCC3)ccc21 (stereo not given),"inconclusive: 7.38 µM [inhibitor, partial curve]"
7,O=C(CCN1C(=O)/C(=C\c2cccc(Br)c2)SC1=S)NCCCN1CCOCC1,inactive
8,Cc1c(C)c2c(OCC(=O)NCc3ccco3)cc3c(c2oc1=O)CCC(C)(C)O3,inactive
9,COc1ccc(N(CC(=O)NCc2ccc3c(c2)OCO3)S(=O)(=O)c2ccccc2[N+](=O)[O-])c(OC)c1,"inconclusive: 10.4 µM [inhibitor, single point]"
10,Cc1ccc2nc3ccc(N4CCCC4)nn3c(=O)c2c1,active: 4.65 µM
11,Cc1ccccc1OCc1occc1C(=O)Nc1cccc(-n2cnnn2)c1,"inconclusive: 18.5 µM [inhibitor, single point]"
12,Cc1cc(C)cc(N2C(=O)CC(Sc3ccccc3C(=O)O)C2=O)c1 (stereo not given),inactive
13,O=C(CN(C(=O)c1csnn1)c1ccccc1F)NCc1ccc2c(c1)OCO2,"inconclusive: 4.15 µM [inhibitor, partial curve, poor fit]"
14,CC1(C)Cc2c(cnn2-c2ccc(F)cc2)C(NC(=O)CCN2CCCCC2=O)C1 (stereo not given),"inconclusive: 18.5 µM [inhibitor, single point]"
15,CC(C)(C)C(=O)C1=C(O)C(=O)N(Cc2ccccc2)C1c1ccccc1F (stereo not given),"inconclusive: 16.5 µM [inhibitor, single point]"
16,CC(=NCCCO)c1c(O)[nH]c(=O)[nH]c1=O,inactive
17,COc1ccccc1C1(CCNC(C)c2cccs2)CCOC(C(C)C)C1 (stereo not given),active: 8.28 µM
18,OC(CN1C2=NCCN2c2ccccc21)c1ccccc1 (stereo not given),"inconclusive: 5.22 µM [inhibitor, single point]"
19,Cc1c(Cl)cccc1NC(=O)CCCCCN1C(=O)CCC1=O,inactive
20,COn1c(=O)c(-c2cccc(Br)c2)[n+]([O-])c2ccccc21,"inconclusive: 18.5 µM [inhibitor, single point]"
21,CC(C)(C)C(=O)NNC(=O)CCCOc1ccc(Cl)cc1Cl,"inconclusive: 1.65 µM [inhibitor, partial curve, poor fit]"
22,O=C(c1cnccn1)N1CCc2c([nH]c3ccccc23)C1c1cccc(Cl)c1 (stereo not given),"inconclusive: 10.4 µM [inhibitor, single point]"
23,CCOC(=O)C(NC(=O)C1C(C)N1S(=O)(=O)c1ccc(C)cc1)C(=O)OCC (stereo not given),inactive

row,Structure (SMILES),Potency
1,CCOc1ccc(NC(=O)C2CCCN(S(=O)(=O)c3ccc4c(c3)CC(C)N4C(C)=O)C2)cc1 (stereo not given),"inconclusive: 2.08 µM [inhibitor, partial curve, poor fit]"
2,O=C(CN1CCCC1c1cccs1)N1CCN(S(=O)(=O)c2cccc(F)c2)CC1 (stereo not given),"inconclusive: 13.1 µM [inhibitor, single point]"
3,O=C(O)/C(=C\c1ccco1)NC(=O)c1ccco1,"inconclusive: 18.5 µM [inhibitor, single point]"
4,CN(Cc1c(F)cccc1Cl)C(=O)c1ccc(COc2ccccc2)cc1,"inconclusive: 18.5 µM [inhibitor, single point]"
5,Nc1c(Cl)ncnc1N/N=C/c1cccc(O)c1,inactive
6,Cc1cccc(-n2c(O)c(C=NC34CN5CN(CN(C5)C3)C4)c(=O)[nH]c2=O)c1,"inconclusive: 8.28 µM [inhibitor, single point]"
7,CC(=O)c1cccc(NC(=O)C(C)OC(=O)c2cccc(S(=O)(=O)N3CCN(C)CC3)c2)c1 (stereo not given),"inconclusive: 0.117 µM [inhibitor, full curve, poor fit]"
8,CNS(=O)(=O)c1ccc(NCC2COc3ccccc3O2)c([N+](=O)[O-])c1 (stereo not given),inactive
9,COc1cc2nc(N(CCCN(C)C)C(=O)c3ccc(S(=O)(=O)N(C)C4CCCCC4)cc3)sc2cc1OC,"inconclusive: 18.5 µM [inhibitor, single point]"
10,CCN(CC)CCOC(=O)c1ccc(N/C=C(/C#N)c2nc(-c3cc4ccccc4oc3=O)cs2)cc1,active: 0.147 µM
11,Cc1ccccc1NS(=O)(=O)c1ccc2c(c1)oc(=O)n2C,"inconclusive: 2.62 µM [inhibitor, partial curve, poor fit]"
12,Cn1cc([N+](=O)[O-])c(C(=O)n2cccn2)n1,inactive
13,COc1ccc(C2/C(=C(/O)c3ccccc3)C(=O)C(=O)N2C)cc1 (stereo not given),"inconclusive: 0.185 µM [inhibitor, full curve]"
14,CCc1cccc(OCC(=O)Nc2ccc(S(=O)(=O)Nc3onc(C)c3C)cc2)c1,"inconclusive: 13.1 µM [inhibitor, single point]"
15,CC(=O)NC1CCN(CC(=O)Nc2nccs2)CC1,inactive
16,CC1(OC(=O)CCc2ccccc2)C(=O)C=C2C=C3CCCN3C=C2C1=O (stereo not given),inactive
17,COCC(=O)N1CCC(n2nccc2NC(=O)c2ccccc2OC)CC1,inactive
18,COc1ccc(NC(=O)C/C(C)=N/NC(=O)c2cnccn2)cc1Cl,"inconclusive: 18.5 µM [inhibitor, single point]"
19,COc1ccc(N2CC(C(=O)Nc3ccccc3N3CCCC3)CC2=O)c(OC)c1 (stereo not given),inactive
20,CC(C)NC(=O)COc1coc(CN2CCN(c3cccc(Cl)c3)CC2)cc1=O,active: 11.7 µM
21,CCN(CC)c1ccc(-c2n[nH]c(=S)n2-c2ccccc2C)cc1,"inconclusive: 16.5 µM [inhibitor, single point]"
22,Cc1nn(-c2ccccc2)c(Cl)c1C(=O)OC(C)C(=O)NC(=O)NC1CCCCC1 (stereo not given),"inconclusive: 18.5 µM [inhibitor, single point]"

# 3 structures already listed, sorted by molecular weight, low to high.
row,Structure (SMILES),Potency
3,O=C(O)/C(=C\c1ccco1)NC(=O)c1ccco1,"inconclusive: 18.5 µM [inhibitor, single point]"
22,Cc1nn(-c2ccccc2)c(Cl)c1C(=O)OC(C)C(=O)NC(=O)NC1CCCCC1 (stereo not given),"inconclusive: 18.5 µM [inhibitor, single point]"
10,CCN(CC)CCOC(=O)c1ccc(N/C=C(/C#N)c2nc(-c3cc4ccccc4oc3=O)cs2)cc1,active: 0.147 µM
